This is one part of the list. These are further read-outs of the screen, such as a control signal, another cell line or another target. No call is given for them. Compounds called inactive in the main read-out are mostly missing here. Words in brackets tell the shape of the fitted curve; partial curves, single points and poor fits give uncertain potencies.
Experiment: qHTS Assay to Find Inhibitors of Chronic Active B-Cell Receptor Signaling
Conditions: ABC-DLBCL IkBa-CBG/CBR reporter, luminescence ratio (green luciferase fused to IkBa over red control in TMD8 lymphoma cells), 4 h
How it was run: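 TMD8 human ABC-DLBCL cells with doxycycline-inducible IκBα–green luciferase fusion and unfused red luciferase, in 0.5% FBS medium; compounds up to 46 uM, 4 h at 37C. Green/red luminescence ratio, filter-overlap corrected, fitted to concentration-response curves.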

[1] = measured here: CBR red luminescence, cell number

CN1CCC(N(C)C(=O)c2cccc(S(=O)(=O)N3CCc4ccccc43)c2)CC1
AC50 [1]: 9.2 µM [rising, partial curve]

Clc1ccc(-c2cc(-c3ccccn3)on2)c(Cl)c1
AC50 [1]: 2.24 µM [rising, partial curve, poor fit]

COC(=O)c1cnn2c(C(F)(F)F)cc(-c3ccccc3)nc12
AC50 [1]: 2.91 µM [falling, full curve]

C[C@@H](C(=O)NCc1c(F)cccc1Cl)N1C(=O)N2CCc3c([nH]c4ccccc34)[C@@]2(C)C1=O
AC50 [1]: 14.1 µM [falling, single point]

COC(=O)c1ccccc1Oc1nc(Cl)cc(OC)n1
AC50 [1]: 29.1 µM [rising, single point]

CCN(CC)S(=O)(=O)c1ccc(C(=O)N2CCN=C2SCc2cccnc2)cc1
AC50 [1]: 6.51 µM [rising, single point]

CC(=O)Nc1nc2ccc(Br)cc2s1
AC50 [1]: 1.26 µM [rising, full curve] | AC50 (measured here: IkBa-CBG green luminescence): 11.2 µM [falling, partial curve, poor fit]

COc1ccc(/C=N/NC(=O)c2cc(-c3ccccc3OC)nc3ccccc23)cc1COC(C)=O
AC50 [1]: 14.1 µM [falling, single point]

Cc1ccc(S(=O)(=O)NC(C)C(c2cccs2)N2CCN(c3ccccc3)CC2)cc1 (centres undefined)
AC50 [1]: 0.116 µM [rising, full curve, poor fit]

O=C(NCc1ccccc1)C1CCC(CNc2c(N3CCCCC3)c(=O)c2=O)CC1 (centres undefined)
AC50 [1]: 5.17 µM [rising, full curve]

COc1ccc(C(CC(=O)N2CCOCC2)c2c(O)cc(OC)cc2OC)cc1 (centres undefined)
AC50 [1]: 11.2 µM [rising, partial curve]

Cc1ccccc1NC(=S)C1=C(O)c2sccc2N(C)S1(=O)=O
AC50 [1]: 0.164 µM [falling, full curve, poor fit]

CCN(CC)C(=O)CSc1nc2ccccc2c(=O)[nH]1
AC50 [1]: 29.1 µM [falling, single point]

O=C(Nc1ccc2nc(-c3ccccc3)[nH]c2c1)c1ccco1
AC50 [1]: 25.9 µM [falling, single point]

O=C(Cc1ccc(Cl)cc1)Nc1ccc(Cl)cn1
AC50 [1]: 0.251 µM [rising, full curve, poor fit]

CCOC(=O)c1[nH]c(C)c(C(=O)NC2CCCCCC2)c1C
AC50 [1]: 0.259 µM [rising, full curve, poor fit]

S=c1[nH]nc(COc2ccccc2)n1/N=C/c1c(Cl)cccc1Cl
AC50 [1]: 7.08 µM [rising, full curve, poor fit]

Cc1ccc(N2CC(C(=O)NCc3n[nH]c(=O)c4ccccc34)CC2=O)cc1C (centres undefined)
AC50 [1]: 16.4 µM [falling, partial curve]

Reference: PubChem BioAssay AID493014 (National Center for Advancing Translational Sciences (NCATS), 2011)
